Some of these results come from one statement about several compounds together.
Test system: cultured cells expressing an increased level of bcl-2
Experiment: Resistance of cultured cells expressing an increased level of bcl-2 to cytotoxic agents
Assay type: cell-based

O=C1c2c(O)cccc2-c2nn(CCNCCO)c3ccc(NCCNCCO)c1c23 [losoxantrone]
resistance to the actions of the agent in cells expressing an increased level of bcl-2: 3 to 5 fold

— US6649644B1, “Method of treating HIV infection by combined use of a cytotoxic agent and a non-nucleoside reverse transcriptase inhibitor” (priority 1998, dated 2003)
